Measurements reported in PubChem BioAssay AID330 (DTP/NCI, 2004).
The list does not hold the whole screen: it is rich in T/C values a quarter to a half above the control, in often repeated tests (any T/C) and in doses without a T/C. Further doses and runs are listed elsewhere. T/C is the treated group as % of the vehicle group. Some doses have a count of surviving animals in place of a T/C: the source files T/C as zero there, which appears to mark a toxic dose or a test without result, not a measured value. Some survivor counts are full or nearly so, which does not show that the dose was tolerated: survival well below the control is almost never listed, so the zero probably covers shortened survival too. Survivors were counted at the toxicity check, usually on the fifth day, unless a day is given; later deaths do not show. Schedules are NCI's codes, taken here to give the interval after Q, in days (D) or hours (H), and the number of doses after X. Some entries hold several experiments; the results are listed from low to high. Some structures stand for samples that the source files as different forms (salt, stereo form or complex); doses refer to the form tested. Counts like (3×) stand for listed records that agree. Where survival is the endpoint, the PubChem record calls one and a half times the control and up active, and a quarter to a half above the control has no call in these data; cut-offs in other NCI protocols can differ.

System: P388 leukemia ip, CD2F1 mice, survival T/C
Test: NCI In Vivo Anticancer Drug Screen. Data for tumor model P388 Leukemia (intraperitoneal) in CD2F1 (CDF1) mice
Details: T/C endpoint: median survival time, higher T/C = longer survival
[1] = dose: 50.0 mg/kg/injection, schedule: Q01DX005 (ip), vehicle: saline with Tween-80
[2] = dose: 100.0 mg/kg/injection, schedule: Q01DX005 (ip), vehicle: saline with Tween-80
[3] = dose: 200.0 mg/kg/injection, schedule: Q01DX005 (ip), vehicle: saline with Tween-80
[4] = dose: 50.0 mg/kg/injection, schedule: Q01DX009 (ip), vehicle: Klucel (hydroxypropylcellulose) (HPC)
[5] = dose: 100.0 mg/kg/injection, schedule: Q01DX009 (ip), vehicle: Klucel (hydroxypropylcellulose) (HPC)
[6] = dose: 200.0 mg/kg/injection, schedule: Q01DX009 (ip), vehicle: Klucel (hydroxypropylcellulose) (HPC)
[7] = dose: 120.0 mg/kg/injection, schedule: Q01DX005 (ip), vehicle: saline with Tween-80
[8] = dose: 200.0 mg/kg/injection, schedule: Q01DX009 (ip), vehicle: saline

Cc1ccc2nc(C[n+]3cccc4ccccc43)ccc2c1
T/C (dose: 1.5 mg/kg/injection, schedule: Q01DX005 (ip), vehicle: saline): 125 % of control
survivor count (dose: 6.25 mg/kg/injection, schedule: Q01DX005 (ip), vehicle: saline with Tween-80): 2 of 5
survivor count (dose: 12.5 mg/kg/injection, schedule: Q01DX005 (ip), vehicle: saline with Tween-80): 0 of 5
survivor count [1]: 0 of 5
survivor count [2]: 0 of 5
survivor count [3]: 0 of 5

COC(=O)C1c2ccccc2CC(=O)N1N (stereo not drawn)
survivor count [4]: 0 of 6
survivor count [5]: 0 of 6
survivor count [6]: 0 of 6

CCCn1c(CC)nc([N+](=O)[O-])c1Sc1ncnc2nc[nH]c12
T/C (dose: 50.0 mg/kg/injection, schedule: Q01DX005 (ip), vehicle: Klucel (hydroxypropylcellulose) (HPC)): 129 and 133 % of control
T/C (dose: 100.0 mg/kg/injection, schedule: Q01DX005 (ip), vehicle: Klucel (hydroxypropylcellulose) (HPC)): 134 and 142 % of control

C[Si](C)(C)S[Si](C)(C)C
survivor count [6]: 0 of 6

[N-]=[N+]=Nc1ccc2nc(N)nc(N)c2c1
survivor count (dose: 400.0 mg/kg/injection, schedule: Q01DX001 (ip), vehicle: Klucel (hydroxypropylcellulose) (HPC)): 0 of 6

O=C1Nc2ccccc2/C1=N\N=c1/scc(-c2ccccc2)n1-c1ccccc1
survivor count [7]: 6 of 6

Oc1cc(O)c(Br)c(O)c1
survivor count (dose: 60.0 mg/kg/injection, schedule: Q01DX005 (ip), vehicle: saline with Tween-80): 4 of 6
survivor count [7]: 0 of 6
survivor count (dose: 240.0 mg/kg/injection, schedule: Q01DX005 (ip), vehicle: saline with Tween-80): 0 of 6

CC1(Cl)CC(C)(/C=C/Cl)C(Br)CC1Cl (stereo not drawn)
survivor count (dose: 332.0 mg/kg/injection, schedule: Q01DX005 (ip), vehicle: Klucel (hydroxypropylcellulose) (HPC)): 6 of 6

C[CH2][Sn]([Cl])([Cl])[CH2]C
T/C (dose: 12.5 mg/kg/injection, schedule: Q04DX003 (ip), vehicle: saline): 136 % of control
survivor count (dose: 25.0 mg/kg/injection, schedule: Q04DX003 (ip), vehicle: saline): 0 of 6 and 1 of 6
survivor count (dose: 100.0 mg/kg/injection, schedule: Q04DX003 (ip), vehicle: saline): 0 of 6 (2×)
survivor count (dose: 200.0 mg/kg/injection, schedule: Q04DX003 (ip), vehicle: saline): 0 of 6 (2×)
survivor count (dose: 400.0 mg/kg/injection, schedule: Q04DX003 (ip), vehicle: saline): 0 of 6 (2×)

COc1cc(OC(=O)N(CCCl)N=O)cc(OC)c1OC
survivor count (dose: 100.0 mg/kg/injection, schedule: Q01DX001 (ip), vehicle: Klucel (hydroxypropylcellulose) (HPC)): 1 of 6

CC(=O)OCN(C)N=Nc1ccc(Br)cc1
survivor count (dose: 144.0 mg/kg/injection, schedule: Q01DX005 (ip), vehicle: Klucel (hydroxypropylcellulose) (HPC)): 6 of 6

Oc1ccccc1C=NCCC[OH2+].Oc1ccccc1C=NCCC[OH2+].[Cu].[Cu]
survivor count (dose: 25.0 mg/kg/injection, schedule: Q01DX005 (ip), vehicle: saline with Tween-80): 5 of 5
T/C [2]: 126 % of control
survivor count [2]: 2 of 5
survivor count [3]: 0 of 5 and 1 of 5

c1ccc(NSc2ccccc2)cc1
T/C [6]: 127 % of control
survivor count (dose: 400.0 mg/kg/injection, schedule: Q01DX009 (ip), vehicle: Klucel (hydroxypropylcellulose) (HPC)): 2 of 6

CS/C(=C/c1ccc2ccccc2[n+]1C)N1CCOCC1
survivor count [1]: 0 of 5 and 0 of 6
survivor count [2]: 0 of 6
survivor count [3]: 0 of 6

CC1=NN(c2ccccc2)C(=O)C1N=Nc1cc(Cl)cc(S(=O)(=O)O)c1O (stereo not drawn)
survivor count [8]: 5 of 6

N#CC1(N2CCCCC2)CCCCC1
survivor count (dose: 12.5 mg/kg/injection, schedule: Q01DX009 (ip), vehicle: Klucel (hydroxypropylcellulose) (HPC)): 0 of 6
survivor count (dose: 25.0 mg/kg/injection, schedule: Q01DX009 (ip), vehicle: Klucel (hydroxypropylcellulose) (HPC)): 0 of 6
survivor count [4]: 0 of 6
survivor count [5]: 0 of 6

COC(=O)Nc1nc2c(OC)c(OC)c(OC)cc2[nH]1
survivor count (dose: 200.0 mg/kg/injection, schedule: Q01DX005 (ip), vehicle: other): 6 of 6

[B-][N+]12CC[N+]([B-])(CC1)CC2
survivor count (dose: 250.0 micrograms/kg/injection, schedule: Q01DX009 (ip), vehicle: saline): 6 of 6

Cc1ccc(-c2csc(=NCCc3ccccc3)n2-c2ccc(C)cc2)cc1
survivor count (dose: 200.0 mg/kg/injection, schedule: Q04DX002 (ip), vehicle: saline with Tween-80): 6 of 6

CC(=O)OC(C(=O)CCl)C(OC(C)=O)C(OC(C)=O)C(=O)CCl (stereo not drawn)
survivor count (dose: 50.0 mg/kg/injection, schedule: Q01DX009 (ip), vehicle: distilled water + Tween-80 + alcohol): 2 of 6
survivor count (dose: 100.0 mg/kg/injection, schedule: Q01DX009 (ip), vehicle: distilled water + Tween-80 + alcohol): 0 of 6
survivor count (dose: 200.0 mg/kg/injection, schedule: Q01DX009 (ip), vehicle: distilled water + Tween-80 + alcohol): 0 of 6

CCCCCCCCCCCCCCCC[N+]1(CC)CCCCC1
survivor count (dose: 1.56 mg/kg/injection, schedule: Q01DX009 (ip), vehicle: saline): 1 of 6
survivor count (dose: 3.12 mg/kg/injection, schedule: Q01DX009 (ip), vehicle: saline): 6 of 6
survivor count (dose: 6.25 mg/kg/injection, schedule: Q01DX009 (ip), vehicle: saline): 2 of 6
survivor count (dose: 12.5 mg/kg/injection, schedule: Q01DX009 (ip), vehicle: saline): 1 of 6
survivor count (dose: 50.0 mg/kg/injection, schedule: Q01DX009 (ip), vehicle: saline): 0 of 6
survivor count (dose: 100.0 mg/kg/injection, schedule: Q01DX009 (ip), vehicle: saline): 0 of 6
survivor count [8]: 0 of 6

CN(C)c1c([N+](=O)[O-])cc2[nH]cnc2c1[N+](=O)[O-]
survivor count (dose: 12.5 mg/kg/injection, schedule: Q04DX003 (ip), vehicle: saline with Tween-80): 3 of 6
survivor count (dose: 25.0 mg/kg/injection, schedule: Q04DX003 (ip), vehicle: saline with Tween-80): 2 of 6
survivor count (dose: 50.0 mg/kg/injection, schedule: Q04DX003 (ip), vehicle: saline with Tween-80): 0 of 6
survivor count (dose: 100.0 mg/kg/injection, schedule: Q04DX003 (ip), vehicle: saline with Tween-80): 0 of 6
survivor count (dose: 200.0 mg/kg/injection, schedule: Q04DX003 (ip), vehicle: saline with Tween-80): 0 of 6
survivor count (dose: 400.0 mg/kg/injection, schedule: Q04DX003 (ip), vehicle: saline with Tween-80): 0 of 6
